No constants are given. Whether binding was seen depends on the method and setting. Binding seen in cells or lysates may run through a third protein. A result given as binding can be weak or reduced; the word gives no strength.
Molecular target: His-tagged Bag3 ΔWW (deletion of WW domain) (UniProt O95817)
Assay: pull-down; transfected 293T cells fixed with 1.2% formaldehyde, lysed (DPBS, 0.5% Triton X-100, 10 mM imidazole), His-tagged Bag3 held on HisPur Ni-NTA resin at 4 °C, washed, eluted with 300 mM imidazole; associated LITAF detected by immunoblot

Sequences of proteins named here, by UniProt entry; tags and fusion partners are left off. A change or cut given only in a name is not applied to a line headed by its entry.
UniProt O95817: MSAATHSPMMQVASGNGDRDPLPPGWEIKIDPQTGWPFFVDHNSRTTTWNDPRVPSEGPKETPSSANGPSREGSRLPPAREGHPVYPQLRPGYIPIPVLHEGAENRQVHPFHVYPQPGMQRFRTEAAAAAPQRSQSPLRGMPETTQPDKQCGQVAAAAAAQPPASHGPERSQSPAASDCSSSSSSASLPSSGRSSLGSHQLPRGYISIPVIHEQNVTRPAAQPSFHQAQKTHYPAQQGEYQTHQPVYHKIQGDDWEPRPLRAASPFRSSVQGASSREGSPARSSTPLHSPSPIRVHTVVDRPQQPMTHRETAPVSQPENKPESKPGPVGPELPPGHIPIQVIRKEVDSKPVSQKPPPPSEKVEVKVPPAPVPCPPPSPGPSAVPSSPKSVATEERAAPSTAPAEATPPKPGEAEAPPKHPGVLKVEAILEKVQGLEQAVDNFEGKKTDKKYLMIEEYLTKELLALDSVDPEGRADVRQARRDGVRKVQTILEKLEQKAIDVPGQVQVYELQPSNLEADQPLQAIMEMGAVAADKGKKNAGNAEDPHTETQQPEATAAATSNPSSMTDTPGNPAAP
UniProt Q99732: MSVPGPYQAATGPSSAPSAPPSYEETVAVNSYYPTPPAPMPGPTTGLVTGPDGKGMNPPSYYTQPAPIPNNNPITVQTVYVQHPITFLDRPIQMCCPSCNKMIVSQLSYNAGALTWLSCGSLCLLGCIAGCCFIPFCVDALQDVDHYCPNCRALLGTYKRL

binding: binds
Substance: lipopolysaccharide TNFα factor (LITAF) (from UniProt Q99732 1-161)

— publication PMC9454964
